Some of the results follow. These are further read-outs of the screen, such as a control signal, another cell line or another target. No call is given for them. Most of these compounds were active or inconclusive in the main read-out, so they are no random draw. The note in brackets gives the kind of curve behind each potency; many fits are weak.

A short description of this test: qHTS Assay to Find Inhibitors of Chronic Active B-Cell Receptor Signaling. Particulars: ABC-DLBCL IkBa-CBG/CBR reporter, luminescence ratio (green luciferase fused to IkBa over red control in TMD8 lymphoma cells), 4 h; measured here: CBR red luminescence, cell number. The gist of the method:
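TMD8 human ABC-DLBCL cells with doxycycline-inducible IκBα–green luciferase fusion and unfused red luciferase, in 0.5% FBS medium; compounds up to 46 uM, 4 h at 37C. Green/red luminescence ratio, filter-overlap corrected, fitted to concentration-response curves.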
A general note: In qHTS, concentration-response curves come from the screen itself.
Broadly, the AC50 is the concentration at which the activity in the assay is half-maximal. Regarding `CCC(C)(C)NC(=O)CN(C(=O)CNS(=O)(=O)c1ccccc1)c1ccc2c(c1)OCCO2`, the AC50 is 0.112 µM [falling, full curve, poor fit].
The figure for `CN(C)C(=O)c1ccc(NC(=O)COC(=O)c2cc(S(=O)(=O)N(C)C)ccc2N2CCCC2)cc1` is 2.91 µM [rising, full curve, poor fit].
In the case of `Cc1[nH]n(-c2ccc([N+](=O)[O-])cc2)c(=O)c1C=NCCN1CCN(C(=O)c2ccc(F)cc2)CC1`, the AC50 was 6.51 µM [falling, single point].
In the case of `O=C(CSC1CC(=O)N(CC(c2ccccc2)c2ccccc2)C1=O)Nc1ccc(Cl)cc1` (configuration not stated), the concentration at half-maximal activity (AC50) was 8.91 µM [falling, partial curve].
Then `CCOC(=O)CNC(=O)c1sc2ncnc(N3CCc4ccccc4C3)c2c1C`, with 11.6 µM [falling, partial curve, poor fit].
Consider `CC(C)N1CCC(N2CCN(C/C=C/c3ccccc3)CC2CCO)CC1` (configuration not stated), for which the AC50 is 5.62 µM [falling, single point].
As to `CCOC(=O)N1CCN(c2cc(=O)n(-c3ccc(OCC)cc3)c(=O)[nH]2)CC1`, the concentration at half-maximal activity (AC50) was 6.51 µM [rising, partial curve, poor fit].
Regarding `CC(C)C(=O)Nc1ccc(NC(=O)c2ccccc2Cl)nc1`, the AC50 was 5.8 µM [falling, partial curve, poor fit].
For the compound `CCN1CCN(CCCNC(=O)c2ccc(/C=C3/Sc4ccccc4N(Cc4ccccc4F)C3=O)cc2)CC1`, the concentration at half-maximal activity (AC50) was 35.5 µM [falling, partial curve, poor fit].
The figure for `Cc1ccc(NC(=S)NNC(=O)c2nn(C)c(C)c2Cl)cc1` is 11.2 µM [falling, single point]; for `Cc1ccc(N(C(=O)c2csnn2)C(C(=O)NC2CCCCC2)c2ccncc2)cc1` (configuration not stated) it is 35.5 µM [rising, partial curve, poor fit]; for `CCOC(=O)c1cc(-c2ccc(Cl)cc2)nc2onc(C)c12` it is 7.31 µM [rising, partial curve].
`Cc1ccc(NC(=O)c2ccc(=O)[nH]n2)cc1C`: the half-maximal activity concentration (AC50) is 35.5 µM [falling, single point].
The figure for `Cc1nc(CCNC(=O)COc2ccccc2)cs1` is 18.4 µM [falling, single point].
The figure for `Cc1ccc2nc(NC(=O)c3ccccc3F)sc2c1` is 2 µM [falling, full curve]; for `COc1ccccc1C(=O)OCC(=O)c1cccc([N+](=O)[O-])c1` it is 16.4 µM [rising, single point].
On to `O=C(Nc1ccccc1)N1CCN(c2ccccn2)CC1`, for which the half-maximal activity concentration (AC50) is 10 µM [falling, partial curve, poor fit].

For the origin of these results see PubChem BioAssay AID493014 (National Center for Advancing Translational Sciences (NCATS), 2011).
